This experiment in a line: qHTS Assay for Lipid Storage Modulators in Drosophila S3 Cells.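 On cell number change: cells counted by Cell Tracker Red CMTPX staining in the red channel.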 The settings on record: BODIPY lipid droplet fluorescence, 18-24 h; for cell number change: measured here: cell count max response, cells fed with added oleic acid. In a few lines:
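Drosophila S3 cells loaded with oleic acid (400 uM, as added) and compounds at several concentrations; lipid droplets imaged by 488-nm laser-scanning cytometry, 500–530 nm intensity and object ratio to cell channel. Percent activity normalized to 20 uM Triacsin C.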

The mark [1] stands for this setting: measured here: lipid fluorescence (Fed channel) AC50, cells fed with added oleic acid.
Where [2] appears, read: measured here: cell number channel AC50, cells fed with added oleic acid.

SMILES strings stand for the structures. This is one part of the list. Shown are side measurements of this screen, not its main read-out; they come without a call. The list favours compounds with an active or inconclusive main result. The note in brackets gives the kind of curve behind each potency; many fits are weak.

With `C=CCn1c(SCc2ccc(Br)cc2F)nc2cc(C(=O)O)ccc2c1=O`, the cell number change is -2.92%. Besides, the AC50 under setting [1] is 1.16 µM [rising, single point].

With `COc1ccc(N2C(=O)NC(NS(=O)(=O)c3ccc(NC(C)=O)cc3)(C(F)(F)F)C2=O)cc1` (configuration not stated), the cell number change was -22.3%. In addition, under setting [1], the AC50 is 0.58 µM [falling, single point].

Consider `O=C(COc1ccc(Cl)c(Cl)c1)NC1CCS(=O)(=O)C1` (configuration not stated), for which the cell number change came to 13.8%. Further, the AC50 under setting [2] is 0.651 µM [falling, single point]. Also, the AC50 under setting [1] was 29.1 µM [rising, single point].

On to `COC(=O)c1c(NC(=O)c2cccc(N3C(=O)CCC3=O)c2)sc2c1CCN(C(C)=O)C2`, for which the cell number change is -28.3%. Besides, under setting [1], the AC50 is 8.2 µM [falling, partial curve].

On to `NC(=O)c1ccccc1N=Cc1ccccn1`, for which the cell number change is -3.67%. Besides, the AC50 under setting [1] is 0.184 µM [falling, full curve, poor fit].

In the case of `CCOc1ccc(CNC(=O)CCCn2nc(C)c3c(C)n(-c4ccc(C)cc4)nc3c2=O)cc1`, the cell number change came out at 1.91%. The AC50 under setting [1] was 6.51 µM [rising, single point].

With `C=CCc1ccccc1OCC(O)CN(CC)CC` (configuration not stated), the cell number change is 3.38%. Moreover, the AC50 under setting [1] is 6.51 µM [falling, single point].

Turning to `CC1CCCN(C(=O)Cc2cccc3ccccc23)C1` (configuration not stated), the cell number change is -15.1%. In addition, the AC50 under setting [1] was 0.58 µM [rising, single point].

As to `COc1cccc(C(=O)c2c[nH]c(C(=O)NCCCN3CCOCC3)c2)c1`, the cell number change is 13.2%.

Take `Cc1cccc2c1NC1(CCCC1)CC2C` (configuration not stated): the cell number change is -39.9%. Moreover, the AC50 under setting [2] was 0.206 µM [falling, full curve, poor fit]. The AC50 under setting [1] was 11.6 µM [falling, partial curve].

Turning to `Cc1ccc(-c2c(C(=O)N/N=C/c3cccnc3)nnn2-c2nonc2N)cc1`, the cell number change came out at 25.1%.

As to `Cc1cc(C)nc(SCCN2CCOCC2)n1`, the cell number change is 0.132%. In addition, the AC50 under setting [1] is 6.51 µM [falling, single point].

For the molecule `COc1ccccc1C(=O)Nc1ccc(S(=O)(=O)Nc2onc(C)c2C)cc1`, the cell number change was 29.2%. For the same molecule, the AC50 under setting [1] is 29.1 µM [rising, single point].

On to `COc1ccc(C(=O)OC(C)CN2CCOCC2)cc1OC` (configuration not stated), for which the cell number change is -2.33%. Also, the AC50 under setting [1] is 5.17 µM [falling, single point].

With `Cc1ccc(-n2cccc2/C=C2/C(=N)N3C(=NC2=O)SN=C3S(C)(=O)=O)cc1`, the cell number change is -13.6%. The AC50 under setting [2] is 2.91 µM [falling, single point].

As for `CCOc1ccccc1CNC(=O)c1ccc2c(c1)N(CC)CCS2`, the cell number change was -10.7%.

As to `CCc1nnc(N/N=C/c2ccc(O)c(OC)c2)n1N`, the cell number change was -11.7%. The half-maximal activity concentration (AC50) under setting [2] was 0.461 µM [rising, full curve, poor fit].

In the case of `CCn1c(=O)c(C(=O)NCc2ccccc2Cl)c(O)c2ccccc21`, the cell number change came out at 33.8%. In addition, under setting [2], the AC50 was 29.1 µM [rising, single point]. Also, the AC50 under setting [1] was 23.1 µM [rising, single point].

For the molecule `Cc1ccc(-c2nn3c(=O)c(C)nnc3s2)cc1`, the AC50 by setting is: under setting [2], 2.91 µM [rising, partial curve]; under setting [1], 6.51 µM [rising, partial curve, poor fit].

Consider `Cc1cc(C(=O)COC(=O)c2ccc(N)c([N+](=O)[O-])c2)c(C)n1-c1ccc2c(c1)OCO2`, for which the cell number change is -12.2%. Under setting [1], the AC50 is 0.517 µM [rising, full curve].

On to `CN(C)C=Nc1nonc1-c1ccc(Cl)cc1`, for which the cell number change is -54.8%. Under setting [2], the AC50 is 16.4 µM [falling, single point]. Under setting [1], the concentration at half-maximal activity (AC50) was 20.6 µM [falling, single point].

Consider `C=CCn1c(CCc2ccccc2)nnc1SCC(N)=O`, for which the cell number change is -3.7%. Besides, the AC50 under setting [1] is 6.51 µM [rising, single point].

For `O=C(Nc1ccnn1C1CCN(Cc2c(F)cccc2Cl)CC1)C1CCCC1`, the AC50 under setting [1] is 0.116 µM [rising, single point].

`Cc1cccc(OCC(=O)Nc2nnc(S(=O)(=O)N3CCCCCC3)s2)c1`: the cell number change worked out at 16.2%. The AC50 under setting [1] is 29.1 µM [falling, single point].

As for `Cc1c(C(=O)NCCCN2CCOCC2)oc2c1C1(CCC2)SCCS1`, the cell number change was determined as 11.6%. For the same molecule, the AC50 under setting [1] is 6.51 µM [rising, partial curve, poor fit].

On to `CN1C(C(=O)NCc2ccccc2)CC2Cn3c(nc4ccccc43)C21` (configuration not stated), for which the cell number change worked out at 18.1%. Moreover, under setting [1], the AC50 was 13 µM [rising, single point].

As for `CCCCCCS(=O)[C@H]1CS(=O)(=O)C[C@@H]1S(=O)CCCCCC` (some centres not stated), the AC50 under setting [2] was 0.517 µM [falling, full curve, poor fit].

Regarding `CCSc1nc(N2CCOCC2)c2c(c1C#N)CC(C)(C)N(C)C2`, the cell number change turned out to be 104%. Further, the AC50 under setting [2] was 29.1 µM [rising, single point]. The AC50 under setting [1] is 6.51 µM [falling, single point].

As to `CCCCOCCCNC1=NCCCCC1`, the cell number change turned out to be 3%. Moreover, the AC50 under setting [1] was 0.00517 µM [falling, full curve, poor fit].

`O=C(c1ccc(-c2cccc(C(F)(F)F)c2)o1)N1CCCCCCC1`: the cell number change was -48.6%. For the same molecule, under setting [2], the AC50 is 32.6 µM [falling, single point]. Besides, under setting [1], the AC50 was 2.91 µM [rising, single point].

Regarding `O=C(Nc1ccc(S(=O)(=O)NC2=NCCCCC2)cc1)c1cc(F)c(F)cc1Cl`, the cell number change turned out to be 22.1%.

Take `CCc1ccc(OCC(=O)NC(=S)Nc2ccc(C(C)=O)cc2)c(Br)c1`: the cell number change was -2.79%. For the same molecule, under setting [2], the AC50 was 0.092 µM [falling, full curve, poor fit].

As to `CN1CCN(c2nc(-c3ccc(Cl)s3)cs2)CC1`, the AC50 under setting [2] was 0.116 µM [rising, full curve, poor fit].

In the case of `CN(CC(=O)Nc1cccc(F)c1)C(=O)CSc1nc2ccccc2s1`, the cell number change turned out to be 33.6%. Further, under setting [2], the AC50 is 29.1 µM [rising, single point].

Regarding `Cc1ccc(S(=O)(=O)N2Cc3ccccc3CC2C(=O)NC(C)(C)C)cc1` (configuration not stated), the cell number change is -6.06%.

Turning to `CC(C)CC(O)(c1ccccc1)C(CN1CCOCC1)c1ccccc1` (configuration not stated), the cell number change is -34.8%. Further, the AC50 under setting [2] is 25.9 µM [falling, single point].

With `Cc1cc(OCCCCCN2CCCC2)ccc1Cl`, the cell number change was -34.7%. Under setting [2], the AC50 is 8.91 µM [falling, partial curve, poor fit]. In addition, under setting [1], the AC50 is 8.91 µM [falling, partial curve, poor fit].

For `COc1cc(OC)c(C(=O)CCC(=O)O)cc1OC`, the cell number change turned out to be 11.1%. For the same molecule, the AC50 under setting [2] is 1.46 µM [falling, partial curve]. Besides, under setting [1], the AC50 is 1.16 µM [falling, single point].

As to `CC(Oc1ccccc1Cl)C(=O)N(Cc1cccs1)C1CCS(=O)(=O)C1` (configuration not stated), the cell number change is -4.32%. The AC50 under setting [1] is 0.164 µM [falling, full curve, poor fit].

Turning to `COc1cccc(CNC(=O)C2Cc3ccccc3CN2C(C)=O)c1` (configuration not stated), the cell number change is -18.4%.

As for `CS(=O)(=O)N(Cc1ccc(C(=O)NCCSCc2ccco2)cc1)c1ccccc1`, the AC50 was 6.51 µM [rising, single point] under setting [2] and 4.61 µM [rising, partial curve] under setting [1].

`CCOC(=O)/C=C1\SCC(=O)N1CC(=O)Nc1ccc(C(C)C)cc1`: the cell number change is -17%.

Turning to `COc1ccc(OC)c(C2C(C(C)=O)=C(O)C(=O)N2Cc2cccnc2)c1` (configuration not stated), the cell number change stood at 16%. Besides, under setting [1], the AC50 was 20.6 µM [falling, single point].

With `Cc1ccc(-c2cc(-c3ccccc3)nc(N(C)N)n2)cc1`, the cell number change is -15.6%. Besides, the AC50 under setting [1] was 14.6 µM [falling, single point].

As to `S=c1[nH]nc(CN2CCCC2)n1Cc1ccccc1`, the cell number change turned out to be 1.38%.

For `COc1cc(OC)c(NC(=O)CS(=O)(=O)Cc2nc(-c3ccc(C)cc3)oc2C)cc1Cl`, the cell number change was -8.84%. The AC50 under setting [1] was 16.4 µM [falling, single point].

As to `Cc1cc(OC(=O)c2ccc(S(=O)(=O)N(C)C)cc2)cc(=O)o1`, the cell number change stood at 2.79%. Moreover, under setting [1], the AC50 is 6.51 µM [falling, single point].

On to `COc1ccccc1Nc1nc2ccc(C)cc2cc1C#N`, for which the cell number change is 22.5%. Under setting [1], the AC50 was 29.1 µM [rising, single point].

In the case of `CCOC(=O)/C(=N\Nc1ccccc1Cl)N1CCN(c2ccccc2OC)CC1`, the AC50 is, setting by setting: under setting [2], 6.51 µM [rising, partial curve]; under setting [1], 4.61 µM [rising, partial curve].

In the case of `Clc1ccc(COc2ccccc2-c2ccnc3ncnn23)cc1`, the cell number change was found to be 77.6%. Further, the AC50 under setting [2] is 29.1 µM [rising, single point].

As to `CC(OC(=O)c1ccccc1C(=O)N(C)Cc1ccccc1)C(=O)NC1(C#N)CCCCC1` (configuration not stated), the cell number change was -8.03%.

On to `C=CCn1c(SCc2csc(-c3ccc(C)cc3)n2)nnc1-c1ccccc1OC`, for which the cell number change is -16.7%. In addition, under setting [1], the AC50 was 16.4 µM [falling, single point].

With `COc1ccccc1NS(=O)(=O)c1cc(NC(=O)c2cccs2)ccc1N1CCCC1`, the cell number change is -31.6%. The AC50 under setting [2] was 6.51 µM [falling, full curve, poor fit].

As to `CN(Cc1c(C(=O)N2CCCCCCC2)nc2ccc(Cl)cn12)C1CCOC1` (configuration not stated), the cell number change was 2.31%. Under setting [1], the AC50 is 6.51 µM [falling, single point].

Consider `COc1cc(NC(=O)c2cccnc2Sc2ccc(C)c(C)c2)cc(OC)c1OC`, for which the cell number change was determined as 0.327%. The AC50 under setting [1] was 32.6 µM [rising, partial curve, poor fit].

Take `CN1CCN(C(=O)CN(c2cccc(Cl)c2)S(=O)(=O)c2ccccc2)CC1`: the cell number change worked out at 21.8%. The AC50 under setting [1] is 29.1 µM [falling, single point].

Consider `Fc1ccc(Br)cc1/C=N/N1CCN(c2ccccc2)CC1`, for which the cell number change was -6.93%. Also, the AC50 under setting [1] was 6.51 µM [rising, single point].

Regarding `COc1ccc(/C=C2/CCc3ccccc3C2=O)cc1CN1CCOCC1`, the cell number change was -36.3%. The AC50 under setting [2] was 32.6 µM [falling, single point].

Take `Cc1ccccc1NC(=O)CSc1nn2c(=O)c(C)nnc2s1`: the AC50 under setting [2] is 0.00461 µM [rising, full curve, poor fit].

With `Cc1ccc(C(=O)N/N=C/c2ccc(-c3ccc(Br)cc3[N+](=O)[O-])o2)o1`, the cell number change is -33.4%. The AC50 under setting [2] is 29.1 µM [falling, single point].

Consider `NC(N)=NS(=O)(=O)c1ccc(NC(=S)NC(=O)/C=C/c2ccccc2)cc1`, for which the cell number change was -7.62%. In addition, the AC50 under setting [1] was 9.2 µM [rising, partial curve].

Source of the values: PubChem BioAssay AID2685 (National Center for Advancing Translational Sciences (NCATS), 2010).
